Results are given in words; binding and its absence hold for the method and conditions named. In cells and extracts the contact can be indirect. Some binding calls cover weakened binding; strength is not graded here.
Experiments:
[1] = target: Wiskott-Aldrich syndrome protein (WASP), endogenous (human (endogenous in B lymphoblastoid cell lines)) (UniProt P42768); assay: proximity ligation; Duolink In Situ Red Mouse/Rabbit kit on fixed, permeabilised WT B cells; mouse anti-WASP (D-1) with rabbit antibody to the partner; rabbit isotype as negative control
[2] = target: Wiskott-Aldrich syndrome protein (WASP), endogenous (human (endogenous in B lymphoblastoid cell lines)) (UniProt P42768); assay: co-IP; B-cell lysates (50 mM Tris-HCl pH 7.5, 150 mM NaCl, 0.5% Triton X-100), protein A-Sepharose conjugated with antibodies, 30 min at 4 °C, immunoblot

Sequences of proteins named here, by UniProt entry; tags and fusion partners are left off.
UniProt P42768: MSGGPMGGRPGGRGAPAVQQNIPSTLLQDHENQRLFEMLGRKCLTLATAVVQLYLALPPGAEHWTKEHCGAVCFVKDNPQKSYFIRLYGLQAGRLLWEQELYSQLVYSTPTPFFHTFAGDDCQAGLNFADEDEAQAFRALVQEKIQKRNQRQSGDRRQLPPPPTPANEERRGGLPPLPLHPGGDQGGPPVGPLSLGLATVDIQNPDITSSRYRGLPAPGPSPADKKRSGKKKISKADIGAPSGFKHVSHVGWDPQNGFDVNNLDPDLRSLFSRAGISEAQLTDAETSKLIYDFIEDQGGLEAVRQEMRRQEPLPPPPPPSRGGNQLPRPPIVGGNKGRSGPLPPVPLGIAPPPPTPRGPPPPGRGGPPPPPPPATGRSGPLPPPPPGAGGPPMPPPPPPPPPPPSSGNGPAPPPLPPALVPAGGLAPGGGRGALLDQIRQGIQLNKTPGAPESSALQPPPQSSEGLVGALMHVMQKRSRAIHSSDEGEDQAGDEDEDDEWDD
UniProt Q15393: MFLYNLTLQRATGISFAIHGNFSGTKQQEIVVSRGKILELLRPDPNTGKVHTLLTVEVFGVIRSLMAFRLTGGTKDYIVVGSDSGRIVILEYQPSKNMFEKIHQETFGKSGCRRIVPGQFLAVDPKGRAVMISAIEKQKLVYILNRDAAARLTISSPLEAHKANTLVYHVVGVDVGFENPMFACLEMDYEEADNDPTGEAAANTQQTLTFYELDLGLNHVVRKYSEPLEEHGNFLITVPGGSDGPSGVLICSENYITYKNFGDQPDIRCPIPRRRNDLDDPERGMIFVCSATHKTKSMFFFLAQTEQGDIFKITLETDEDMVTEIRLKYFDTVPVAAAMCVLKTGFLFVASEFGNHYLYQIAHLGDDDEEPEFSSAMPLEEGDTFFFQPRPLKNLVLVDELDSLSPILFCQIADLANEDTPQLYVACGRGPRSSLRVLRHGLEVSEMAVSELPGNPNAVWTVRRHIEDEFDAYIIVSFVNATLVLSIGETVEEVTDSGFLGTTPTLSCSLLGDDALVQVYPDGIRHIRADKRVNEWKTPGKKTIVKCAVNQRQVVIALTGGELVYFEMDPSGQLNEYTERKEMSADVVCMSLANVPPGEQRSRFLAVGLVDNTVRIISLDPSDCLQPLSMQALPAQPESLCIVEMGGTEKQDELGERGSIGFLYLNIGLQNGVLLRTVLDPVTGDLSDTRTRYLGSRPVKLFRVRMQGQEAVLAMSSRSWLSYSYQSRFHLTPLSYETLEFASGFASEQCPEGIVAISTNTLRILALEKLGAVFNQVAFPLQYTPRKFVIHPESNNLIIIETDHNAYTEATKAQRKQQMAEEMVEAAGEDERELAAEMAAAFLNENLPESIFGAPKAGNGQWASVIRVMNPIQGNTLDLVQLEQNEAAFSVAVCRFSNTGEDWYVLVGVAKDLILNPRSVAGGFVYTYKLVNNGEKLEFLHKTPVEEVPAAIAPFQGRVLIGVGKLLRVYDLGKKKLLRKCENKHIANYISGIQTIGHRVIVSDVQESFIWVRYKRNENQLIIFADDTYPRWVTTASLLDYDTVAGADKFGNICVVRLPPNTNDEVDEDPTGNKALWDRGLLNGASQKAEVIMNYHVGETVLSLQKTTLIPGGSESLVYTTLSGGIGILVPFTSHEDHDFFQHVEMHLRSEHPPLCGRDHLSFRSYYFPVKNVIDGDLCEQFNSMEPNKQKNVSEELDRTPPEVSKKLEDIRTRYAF

SF3B3 (also known as SAP130), endogenous (from UniProt Q15393 1-1217)
binding [1]: binds | binding [2]: binds

B1: SRSF2, endogenous (protein, UniProt Q01130 1-221)
chain: MSYGRPPPDVEGMTSLKVDNLTYRTSPDTLRRVFEKYGRVGDVYIPRDRYTKESRGFAFVRFHDKRDAEDAMDAMDGAVLDGRELRVQMARYGRPPDSHHSRRGPPPRRYGGGGYGRRSRSPRRRRRSRSRSRSRSRSRSRSRYSRSKSRSRTRSRSRSTSKSRSARRSKSKSSSVSRSRSRSRSRSRSRSPPPVSKRESKSRSRSKSPPKSPEEEGAVSS
binding [1]: binds | binding [2]: binds

Reference: publication PMC9233711, “Wiskott-Aldrich syndrome protein forms nuclear condensates and regulates alternative splicing” (Nature Communications, 2022)
